Where a name gives a salt, the structure may show the parent alone. Repeats are few or missing, and single values can be far off.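 All cells are established human bladder cancer lines, one derived from a patient-derived xenograft. A luminescent ATP assay measured viability as percent inhibition relative to vehicle across seven dilutions. The paper rates scores above 59 very active, 30–59 active, 21–29 semi-active, 9–20 low active, below 9 inactive.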
What was measured:
Assay in all cases: drug sensitivity score DSS3 (score 0-100); higher = more sensitive; extreme values may be limits of the assay
Conditions in all cases: culture: 3D, ultra-low attachment; treatment time: 5 days
5637 = system: 5637
BC8149 = system: BC8149
J82 = system: J82
SCaBER = system: SCaBER
SW780 = system: SW780
T-24 = system: T-24
TCCSUP = system: TCCSUP
UM-UC-12 = system: UM-UC-12
UM-UC-14 = system: UM-UC-14
UM-UC-15 = system: UM-UC-15
UM-UC-17 = system: UM-UC-17
UM-UC-18 = system: UM-UC-18
UM-UC-1 = system: UM-UC-1
UM-UC-5 = system: UM-UC-5
UM-UC-6 = system: UM-UC-6
UM-UC-9 = system: UM-UC-9

Compound	drug sensitivity score DSS3 5637	drug sensitivity score DSS3 (BC8149)	drug sensitivity score DSS3 (J82)	drug sensitivity score DSS3 (SCaBER)	drug sensitivity score DSS3 (SW780)	drug sensitivity score DSS3 (T-24)	drug sensitivity score DSS3 (TCCSUP)	drug sensitivity score DSS3 (UM-UC-12)	drug sensitivity score DSS3 (UM-UC-14)	drug sensitivity score DSS3 (UM-UC-15)	drug sensitivity score DSS3 (UM-UC-17)	drug sensitivity score DSS3 (UM-UC-18)	drug sensitivity score DSS3 (UM-UC-1)	drug sensitivity score DSS3 (UM-UC-5)	drug sensitivity score DSS3 (UM-UC-6)	drug sensitivity score DSS3 (UM-UC-9)
Cn1c(=O)c2c(ncn2CC2OCCO2)n(C)c1=O [Doxofylline] (max dose 10000 nM)	11.2	4.53	0	0.279	0.466	0	8.8	0	2.09	0	6.02	2.63	1.88	1.02	3.89	1.68
COc1cccc2c1C(=O)c1c(O)c3c(c(O)c1C2=O)C[C@@](O)(C(C)=O)C[C@@H]3O[C@H]1C[C@H](N)[C@H](O)[C@H](C)O1 [Daunorubicin HCl] (max dose 10000 nM)	37.9	16.7	7.23	14.9	3.82	2.72	38.3	16.1	3.58	8.69	32.2	49.6	27.6	4.82	30.9	4.03
Nc1ncnc2c1ccn2[C@@H]1O[C@H]([C@H](O)c2ccccc2)[C@@H](O)[C@H]1O [LLY-283] (max dose 10000 nM)	3.57	7.65	0.0732	0.579	0	1.45	0.823	17.4	0.578	26.9	6.63	4.25	2.03	0	1.1	8.85
O=c1cc(-c2cccc3c2Sc2ccccc2S3)oc(N2CCOCC2)c1 (max dose 10000 nM)	0.361	0.253	0	0.109	0	0.0676	0.881	0	0.0618	0	0.264	0.696	0	0	0.258	0
CN1CCN(c2cccc(Nc3nc4c(-c5ccc(S(C)(=O)=O)cc5)cccn4n3)c2)CC1 (max dose 10000 nM)	3.75	6.51	0	0	0	0	0	0	0	0	0	0	0	0	0	0
Cc1cc(CN2CCN(c3c(Br)cnc4nc(-c5ccc(N6CCN(C)CC6)cc5)[nH]c34)CC2)no1 (max dose 10000 nM)	1.38	0	0	0	0	0	3.86	0	0.283	0	0.627	0.506	0.644	0	0.6	0
Nc1ccc(S(=O)(=O)Nc2ccnn2-c2ccccc2)cc1 [Sulfaphenazole] (max dose 10000 nM)	0	2.21	0	0.897	0	0	0.986	0	0.136	0	0	0	0	0	0	0
CNC(=O)CN1CCC(Oc2cc3c(Nc4cccc(Cl)c4F)ncnc3cc2OC)CC1 [Sapitinib] (max dose 10000 nM)	21	4.34	0.138	23.2	0	3.4	4.27	20.8	3.27	0	0	11.2	1.1	0	8.37	3.42
CC(C)Cn1cnc2c(N)nc3ccccc3c21 [Imiquimod] (max dose 10000 nM)	0	1.02e-05	0	0	0	0	0	0	0	0	0	0.0815	0	0	0	0
CC1=C(C(=O)Nc2ccc3[nH]ncc3c2)C(c2ccc(F)cc2)NC(=O)N1 (stereo unspecified) (max dose 10000 nM)	0	0	0	0	0	0	0	0	0	0	0	0	0	0	0	0
O=C(Oc1ccc([N+](=O)[O-])cc1)N1CCC(C(O)(c2ccc3c(c2)OCO3)c2ccc3c(c2)OCO3)CC1 [JZL184] (max dose 10000 nM)	0	0	0	0	0	0	0	0	0	0	0	0	0	0	0	0
COc1ccccc1C(=O)Nc1cc2c(cc1N1CCCCC1)n(C)c(=O)n2C [GSK 5959] (max dose 10000 nM)	0	0	0	0	0	0	0	0	0.216	1.68	0	0	0.0632	0	0	0.107
C[C@@H](Oc1cc(-c2cnn(C3CCNCC3)c2)cnc1N)c1c(Cl)ccc(F)c1Cl (max dose 10000 nM)	10.3	5.77	4.11	1.57	1.07	9.21	11.7	8.78	14.8	0	7.06	21.2	5.57	0	8.52	0.537
N#C/C(=C(/N)Sc1ccc(N)cc1)c1ccccc1C(F)(F)F [SL-327] (max dose 10000 nM)	7.2e-07	0	0	0.0177	0	0	0	0	0	0	0	0	0	0	0	0
NC(=O)c1cccc(-c2cccc(OC(=O)NC3CCCCC3)c2)c1 [URB597] (max dose 10000 nM)	0.802	0.548	0	1.38	0	0.0854	0.99	0.314	0	0	0	0.996	0	0	0	0.0199
CC(C)(C)c1cc(C(=O)C(C#N)=NNc2cccc(Cl)c2)no1 [ESI-09] (max dose 10000 nM)	0	0	0	0	0.0374	0	0.789	0.285	0	1.33	0.641	0	0.556	0	0.104	0.0969
COc1nc(OCc2cccc(-c3ccccc3)c2C)ccc1CNCCNC(C)=O [BMS202 (PD-1/PD-L1 inhibitor 2)] (max dose 10000 nM)	0.254	0.824	0	0	0	0	2.34	0	0.929	1.87	0	0.191	0.712	0	0.249	0
CCN(C)S(=O)(=O)Nc1ccc(F)c(C(=O)c2c[nH]c3ncc(-c4cnc(C5CC5)nc4)cc23)c1F [PLX7904] (max dose 10000 nM)	0	0	0	0	0	0	0.0636	0	0.0101	24.7	0	0	0	0	0	0
Cc1[nH]c(/C=C2\C(=O)Nc3ccc(S(=O)(=O)Cc4c(Cl)cccc4Cl)cc32)c(C)c1C(=O)N1CCC[C@@H]1CN1CCCC1 (max dose 10000 nM)	1.88	13.8	1.85	0	0	4.88	10.2	2.93	1.01	0	0.708	3.26	0.0401	3.45	0.0164	0
COCC(=O)NC/C=C/c1ccc2ncnc(Nc3ccc(Oc4ccc(C)nc4)c(C)c3)c2c1 (max dose 10000 nM)	0	0	0	0	0	0	0.0734	0	0	0	0	0.0488	0.813	0	0	0
Cc1ccc2c(=O)c3cccc(CC(=O)O)c3oc2c1C [DMXAA (Vadimezan)] (max dose 10000 nM)	0	0.43	0	0.716	0	0.0132	0.0964	0	0.542	9.61	0	1.91	0.402	0.0585	0.161	0.0478
COc1ccccc1Nc1nc(-c2sc(NC(C)=O)nc2C)cs1 [JNJ0966] (max dose 10000 nM)	0	0	0	0	0	0	0	0.463	0	0	0	0	0	0	0	0
Cn1cc(-c2ccc3nnc(Sc4ccc5ncccc5c4)n3n2)cn1 [SGX-523] (max dose 5000 nM)	11.3	8.92	0	5.41	5.03	0	10.2	6.36	1.74	3.12	5.26	4.94	3.82	2.08	2.82	3.83
CCc1ccc(Cc2ccc3c(c2)[C@]2(OC3)O[C@H](CO)[C@@H](O)[C@H](O)[C@H]2O)cc1 [Tofogliflozin(CSG 452)] (max dose 10000 nM)	8.75	0.274	0.0327	0	0	1.06	13.5	0	12.6	2.04	0.559	6.14	8.28	0	11.3	0
CN(C)C/C=C/C(=O)Nc1cc2c(Nc3ccc(F)c(Cl)c3)ncnc2cc1O[C@H]1CCOC1 [Afatinib, Afatinib (BIBW2992)] (max dose 10000 nM)	22.8	2.05	0.57	27	0	16.6	4.14	40.5	0.717	0	0	11.7	0	0	6.27	0
Cc1cc(F)c(Nc2ncnc3cc(OCc4ccccc4)ccc23)cc1O (max dose 10000 nM)	0	0	0	0	1.12	0.292	0	0	0.0263	0	0	0	0.000172	0	0	0

A second format for 2 compounds above:

| Compound | drug sensitivity score DSS3 5637 | drug sensitivity score DSS3 (BC8149) | drug sensitivity score DSS3 (J82) | drug sensitivity score DSS3 (SCaBER) | drug sensitivity score DSS3 (SW780) | drug sensitivity score DSS3 (T-24) | drug sensitivity score DSS3 (TCCSUP) | drug sensitivity score DSS3 (UM-UC-12) | drug sensitivity score DSS3 (UM-UC-14) | drug sensitivity score DSS3 (UM-UC-15) | drug sensitivity score DSS3 (UM-UC-17) | drug sensitivity score DSS3 (UM-UC-18) | drug sensitivity score DSS3 (UM-UC-1) | drug sensitivity score DSS3 (UM-UC-5) | drug sensitivity score DSS3 (UM-UC-6) | drug sensitivity score DSS3 (UM-UC-9) |
| --- | --- | --- | --- | --- | --- | --- | --- | --- | --- | --- | --- | --- | --- | --- | --- | --- |
| CC(C)Cn1cnc2c(N)nc3ccccc3c21 [Imiquimod] (max dose 10000 nM) | 0 | 1.02e-05 | 0 | 0 | 0 | 0 | 0 | 0 | 0 | 0 | 0 | 0.0815 | 0 | 0 | 0 | 0 |
| CC1=C(C(=O)Nc2ccc3[nH]ncc3c2)C(c2ccc(F)cc2)NC(=O)N1 (stereo unspecified) (max dose 10000 nM) | 0 | 0 | 0 | 0 | 0 | 0 | 0 | 0 | 0 | 0 | 0 | 0 | 0 | 0 | 0 | 0 |

Reference: the supplement of paper PMC7646827
